# Measurements as given in PMC7862700.
# Chains of the proteins cited; added tags and fusions are not shown. Lines headed by an entry give the natural chain unless they say otherwise; changes in a name come on top.
# UniProt P32519: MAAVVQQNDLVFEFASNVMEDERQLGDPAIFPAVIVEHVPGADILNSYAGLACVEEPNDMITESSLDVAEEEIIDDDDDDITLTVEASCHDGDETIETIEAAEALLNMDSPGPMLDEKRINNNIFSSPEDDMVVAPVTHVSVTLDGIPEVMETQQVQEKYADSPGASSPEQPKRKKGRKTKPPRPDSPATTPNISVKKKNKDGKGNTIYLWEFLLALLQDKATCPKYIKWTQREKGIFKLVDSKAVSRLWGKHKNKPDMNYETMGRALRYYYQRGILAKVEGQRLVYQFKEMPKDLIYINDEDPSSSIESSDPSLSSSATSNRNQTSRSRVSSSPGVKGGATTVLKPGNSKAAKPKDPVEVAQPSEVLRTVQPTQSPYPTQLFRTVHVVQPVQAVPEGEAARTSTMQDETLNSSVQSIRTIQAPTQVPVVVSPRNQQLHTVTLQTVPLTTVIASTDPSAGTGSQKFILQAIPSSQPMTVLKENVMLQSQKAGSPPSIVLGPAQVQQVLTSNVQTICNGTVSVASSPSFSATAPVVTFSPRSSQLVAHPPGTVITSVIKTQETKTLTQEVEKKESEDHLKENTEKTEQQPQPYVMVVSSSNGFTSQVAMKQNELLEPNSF
# UniProt P50549: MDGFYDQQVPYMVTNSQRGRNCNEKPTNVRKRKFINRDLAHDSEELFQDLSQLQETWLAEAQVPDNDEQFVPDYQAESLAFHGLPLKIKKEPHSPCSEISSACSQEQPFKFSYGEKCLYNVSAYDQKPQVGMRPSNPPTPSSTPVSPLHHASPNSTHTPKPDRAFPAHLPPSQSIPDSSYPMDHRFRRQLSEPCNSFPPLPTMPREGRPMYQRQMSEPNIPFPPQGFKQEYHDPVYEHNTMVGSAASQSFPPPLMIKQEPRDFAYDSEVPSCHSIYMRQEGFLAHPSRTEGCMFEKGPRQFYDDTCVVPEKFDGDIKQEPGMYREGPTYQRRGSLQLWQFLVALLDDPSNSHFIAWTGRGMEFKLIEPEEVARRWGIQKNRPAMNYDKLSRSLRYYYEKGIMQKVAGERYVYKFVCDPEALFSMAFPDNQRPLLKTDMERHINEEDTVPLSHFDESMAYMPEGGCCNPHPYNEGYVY
# The entries are a selection whose mix differs from that of the whole data set. For part of these data: At the low end of the ranking, values are background and their order means little. The list shows a part of the results. For part of these data: The source does not settle which construct or isoform was used.
# Columns and labels:
# Test in all cases: DAPPL (digital affinity profiling via proximity ligation, sequencing)
# Details in all cases: 10 mM Tris-HCl pH 7.5, 50 mM NaCl, 1 mM DTT, 4% glycerol, room temperature, 30 min; GST-TFs on glutathione beads, 16-mer random dsDNA library, 0.1% …; high values mean tight binding; double strand, one strand shown; scale: fold enrichment (6-mer frequency, TF over GST control)
# ERG = target: T1, ERG (UniProt P11308)
# T1 sequence: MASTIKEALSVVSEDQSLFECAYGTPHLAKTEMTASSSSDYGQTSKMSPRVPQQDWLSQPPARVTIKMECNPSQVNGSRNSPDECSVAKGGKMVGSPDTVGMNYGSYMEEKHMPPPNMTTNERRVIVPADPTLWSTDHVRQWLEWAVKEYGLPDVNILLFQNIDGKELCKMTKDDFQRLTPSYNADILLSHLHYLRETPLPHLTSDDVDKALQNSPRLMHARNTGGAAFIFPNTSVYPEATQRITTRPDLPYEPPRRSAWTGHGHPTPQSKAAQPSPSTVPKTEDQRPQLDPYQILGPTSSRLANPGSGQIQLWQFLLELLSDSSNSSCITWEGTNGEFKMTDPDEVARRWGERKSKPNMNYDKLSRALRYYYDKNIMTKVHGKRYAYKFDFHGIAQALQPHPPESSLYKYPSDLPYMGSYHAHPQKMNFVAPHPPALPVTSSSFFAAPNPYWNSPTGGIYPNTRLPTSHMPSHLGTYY
# ELF1 = ELF1 (UniProt P32519)
# ELK4 = target: T2, ELK4 (UniProt P28324-2)
# T2 sequence: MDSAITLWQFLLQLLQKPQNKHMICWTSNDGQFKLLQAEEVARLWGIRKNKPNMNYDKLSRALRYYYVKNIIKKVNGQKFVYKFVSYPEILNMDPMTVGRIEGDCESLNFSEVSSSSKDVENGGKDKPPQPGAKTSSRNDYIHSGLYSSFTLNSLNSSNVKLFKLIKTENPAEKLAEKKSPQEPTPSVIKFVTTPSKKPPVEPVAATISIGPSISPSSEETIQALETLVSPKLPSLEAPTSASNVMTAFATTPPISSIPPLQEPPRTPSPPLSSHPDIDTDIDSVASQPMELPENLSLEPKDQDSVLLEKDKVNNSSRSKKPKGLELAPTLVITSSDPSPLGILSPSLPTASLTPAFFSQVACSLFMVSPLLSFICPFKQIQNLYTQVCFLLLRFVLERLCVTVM
# ETV4 = target: T3, ETV4 (UniProt P43268)
# T3 sequence: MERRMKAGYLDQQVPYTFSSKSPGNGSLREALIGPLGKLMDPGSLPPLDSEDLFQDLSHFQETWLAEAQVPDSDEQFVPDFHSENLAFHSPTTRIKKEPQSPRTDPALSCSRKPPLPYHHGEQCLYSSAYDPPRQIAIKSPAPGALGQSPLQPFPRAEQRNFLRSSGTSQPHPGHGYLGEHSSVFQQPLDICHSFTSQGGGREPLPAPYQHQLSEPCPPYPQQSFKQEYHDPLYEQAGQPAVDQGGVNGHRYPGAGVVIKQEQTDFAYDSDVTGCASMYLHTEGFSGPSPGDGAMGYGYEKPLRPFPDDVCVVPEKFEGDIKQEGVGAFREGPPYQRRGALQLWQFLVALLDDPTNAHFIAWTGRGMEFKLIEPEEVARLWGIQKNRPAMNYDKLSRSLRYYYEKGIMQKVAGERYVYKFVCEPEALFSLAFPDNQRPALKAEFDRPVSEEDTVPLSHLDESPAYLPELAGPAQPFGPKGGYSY
# ETV1 = ETV1 (UniProt P50549)
# ERF = target: T4, ERF (UniProt P50548)
# T4 sequence: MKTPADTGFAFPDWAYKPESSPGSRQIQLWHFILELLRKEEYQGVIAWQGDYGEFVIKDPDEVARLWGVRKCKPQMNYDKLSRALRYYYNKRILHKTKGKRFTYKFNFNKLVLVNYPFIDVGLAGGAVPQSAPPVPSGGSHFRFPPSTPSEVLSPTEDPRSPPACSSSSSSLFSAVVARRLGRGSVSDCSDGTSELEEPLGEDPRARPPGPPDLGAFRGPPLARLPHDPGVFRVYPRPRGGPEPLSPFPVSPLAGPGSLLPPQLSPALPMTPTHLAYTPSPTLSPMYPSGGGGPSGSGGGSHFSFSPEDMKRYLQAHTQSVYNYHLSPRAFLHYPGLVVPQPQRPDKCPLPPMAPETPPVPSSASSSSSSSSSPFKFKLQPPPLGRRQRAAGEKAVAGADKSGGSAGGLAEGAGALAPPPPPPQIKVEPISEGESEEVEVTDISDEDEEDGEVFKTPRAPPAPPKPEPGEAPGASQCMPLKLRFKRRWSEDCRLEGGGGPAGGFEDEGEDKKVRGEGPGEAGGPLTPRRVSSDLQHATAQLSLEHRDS
Sequence,binding signal (ERG),binding signal (ELF1),binding signal (ELK4),binding signal (ETV4),binding signal (ETV1),binding signal (ERF)
CCGGGC,0.826,0.837,0.995,0.823,0.917,0.731
GGGCCC,0.864,0.791,0.883,0.742,0.816,0.675
AGCCTG,0.857,0.865,0.958,0.898,0.882,0.883
TCGGAC,0.386,0.401,0.379,0.373,0.358,0.378
GTAGGA,0.652,0.536,0.533,0.594,0.589,0.603
ACGTAG,0.783,0.829,0.777,0.805,0.751,0.788
CAGTAG,0.553,0.62,0.58,0.602,0.625,0.614
GAGCCA,0.623,0.613,0.635,0.615,0.556,0.581
GCGGTG,0.496,0.517,0.552,0.495,0.549,0.546
AGCCGA,0.865,0.816,0.817,0.832,0.778,0.801
AACGAG,0.794,0.805,0.844,0.796,0.787,0.785
AGATAG,0.803,0.829,0.782,0.799,0.923,0.893
GTCAAT,0.837,0.793,0.872,0.861,0.843,0.862
CGCAGA,0.796,0.733,0.803,0.787,0.784,0.786
CAGGGC,0.769,0.739,0.864,0.802,0.796,0.816
AGGAGG,0.235,0.214,0.191,0.224,0.217,0.221
GGACAA,0.86,0.824,0.707,0.845,0.802,0.92
CGTGGG,0.373,0.349,0.4,0.358,0.386,0.405
GCCATG,0.784,0.783,0.913,0.836,0.799,0.822
GTGTGG,0.699,0.618,0.675,0.637,0.701,0.593

Sequence,binding signal (ERG),binding signal (ELF1),binding signal (ELK4),binding signal (ETV4),binding signal (ETV1),binding signal (ERF)
GGTCGG,0.298,0.252,0.267,0.269,0.25,0.28
GGGGGT,0.519,0.52,0.567,0.556,0.604,0.567
CAGGCA,0.766,0.734,0.744,0.741,0.72,0.688
CGTAGA,0.723,0.751,0.773,0.693,0.681,0.728
ATCCAG,0.853,0.843,0.927,0.832,0.866,0.895
GCTTGA,0.91,0.923,0.982,0.956,0.927,0.745
GGAATC,0.76,0.685,0.666,0.73,0.727,0.703
AGTCTA,0.71,0.725,0.723,0.753,0.763,0.803
ACAGTC,0.432,0.445,0.445,0.407,0.481,0.448
TGAGTC,0.216,0.184,0.185,0.186,0.193,0.208
GTGCAG,0.706,0.71,0.745,0.704,0.752,0.685
ACACAG,0.948,1.05,1.12,0.929,0.987,1.04
GACGGC,0.77,0.76,0.672,0.69,0.754,0.728
GGGTCT,0.847,0.98,0.95,0.885,0.954,0.998
TCAGTG,0.727,0.806,0.882,0.823,0.786,0.94
GCGGTT,0.844,0.753,0.826,0.79,0.781,0.792
GGCTGA,0.746,0.777,0.825,0.797,0.839,0.825
CCGAGG,0.764,0.675,0.709,0.736,0.77,0.767
GGTGTA,0.87,0.8,0.87,0.844,0.834,0.891
CGCCGT,0.951,0.971,0.968,0.926,0.98,0.966

# Some of the entries so far, with tabs:
Sequence	binding signal (ERG)	binding signal (ELF1)	binding signal (ELK4)	binding signal (ETV4)	binding signal (ETV1)	binding signal (ERF)
GGGCCC	0.864	0.791	0.883	0.742	0.816	0.675
ACGTAG	0.783	0.829	0.777	0.805	0.751	0.788
AACGAG	0.794	0.805	0.844	0.796	0.787	0.785
GTCAAT	0.837	0.793	0.872	0.861	0.843	0.862
GGACAA	0.86	0.824	0.707	0.845	0.802	0.92
CGTGGG	0.373	0.349	0.4	0.358	0.386	0.405
GGTCGG	0.298	0.252	0.267	0.269	0.25	0.28
CGTAGA	0.723	0.751	0.773	0.693	0.681	0.728
ATCCAG	0.853	0.843	0.927	0.832	0.866	0.895
GCTTGA	0.91	0.923	0.982	0.956	0.927	0.745
GGAATC	0.76	0.685	0.666	0.73	0.727	0.703
AGTCTA	0.71	0.725	0.723	0.753	0.763	0.803
GACGGC	0.77	0.76	0.672	0.69	0.754	0.728
TCAGTG	0.727	0.806	0.882	0.823	0.786	0.94
GGCTGA	0.746	0.777	0.825	0.797	0.839	0.825

# Further results.

Sequence,binding signal (ERG),binding signal (ELF1),binding signal (ELK4),binding signal (ETV4),binding signal (ETV1),binding signal (ERF)
GTTAGT,0.811,0.77,0.845,0.8,0.79,0.773
CCAGGA,0.666,0.661,0.593,0.65,0.729,0.654
GTCGTA,0.629,0.589,0.613,0.563,0.604,0.613
GGGTAA,0.83,0.889,0.982,0.887,0.946,0.908
AAGTGA,0.701,0.632,0.551,0.601,0.654,0.599
GTGAGA,0.302,0.3,0.347,0.295,0.283,0.327
ACGTGT,0.64,0.648,0.682,0.657,0.668,0.641
GAGAGA,0.421,0.434,0.41,0.406,0.393,0.484
GAGAAC,0.426,0.408,0.409,0.375,0.389,0.406
AGAGAG,0.499,0.547,0.517,0.508,0.508,0.551
TGAGAA,0.747,0.744,0.792,0.643,0.685,0.628
TGGGTC,0.646,0.699,0.617,0.668,0.601,0.684
GAAGGG,0.827,0.773,0.822,0.799,0.821,0.78
GTGTGT,0.532,0.501,0.587,0.492,0.514,0.482
GGTTCG,0.808,0.8,0.803,0.844,0.836,0.821
AGGTTA,0.75,0.779,0.925,0.787,0.775,0.751
AGCGCG,0.789,0.793,0.751,0.796,0.872,0.862
GGGGTA,0.746,0.727,0.732,0.766,0.848,0.703
AGGCCT,0.951,0.929,0.991,0.972,0.961,0.883
AGAGCG,0.436,0.409,0.426,0.433,0.444,0.436
